Reference: US20140357560A1, “PTH-CONTAINING THERAPEUTIC/PROPHYLACTIC AGENT FOR OSTEOPOROSIS, CHARACTERIZED IN THAT PTH IS ADMINISTERED ONCE A WEEK IN A UNIT DOSE OF 100 TO 200 UNITS” (ASAHI KASEI PHARMA CORPORATION, priority 2009, published 2014)
Not every detail of the peptide structures is certain; ends, links or a residue may be inferred.

Tests used:
Format in all cases: in vivo, human
[1] = tested on: high-risk patients diagnosed with primary osteoporosis; assay: Working Example 2: bone density of the lumbar spine by DXA; details: 200 units once a week; for Changes in bone density (%), Lumbar spine: patients taking glucocorticoid
[2] = tested on: patients diagnosed with primary osteoporosis; assay: Working Example 1: fractures of sites other than the vertebrae (roentgen films)
[3] = tested on: high-risk patients diagnosed with primary osteoporosis; assay: Working Example 2: worsening vertebral fractures; details: FAS, 200 units once a week
[4] = tested on: high-risk patients diagnosed with primary osteoporosis; assay: Working Example 2: bone density of the femur (neck, proximal) by DXA; details: 200 units once a week; for Changes in bone density (%), Neck of femur / Changes in bone density (%), Proximal femur: patients taking glucocorticoid
[5] = Mild impairment (≧50-<80), After 24 W
[6] = Mild impairment (≧50-<80), After 48 W
[7] = Mild impairment (≧50-<80), After 72 W
[8] = Mild impairment (≧50-<80), Final
[9] = Moderate impairment (<50), After 24 W
[10] = Moderate impairment (<50), After 48 W
[11] = Moderate impairment (<50), After 72 W
[12] = Moderate impairment (<50), Final
[13] = history of taking Alfacalcidol, 24 W
[14] = history of taking Alfacalcidol, 48 W
[15] = history of taking Alfacalcidol, 72 W
[16] = history of taking Calcitriol, 24 W
[17] = history of taking Calcitriol, 48 W
[18] = history of taking Calcium L-aspartate, 24 W
[19] = history of taking Calcium L-aspartate, 48 W
[20] = history of taking Calcium L-aspartate, 72 W
[21] = history of taking Calcium lactate, 24 W
[22] = history of taking Calcium lactate, 48 W
[23] = history of taking Calcium lactate, 72 W
[24] = history of taking Elcatonin, 24 W
[25] = history of taking Elcatonin, 48 W
[26] = history of taking Elcatonin, 72 W
[27] = history of taking Menatetrenone, 24 W
[28] = history of taking Menatetrenone, 48 W
[29] = history of taking Menatetrenone, 72 W
[30] = history of taking Raloxifene hydrochloride, 24 W
[31] = history of taking Raloxifene hydrochloride, 48 W
[32] = history of taking Raloxifene hydrochloride, 72 W
[33] = history of taking Calcitriol, 72 W

Compound: CC[C@H](C)[C@H](NC(=O)[C@H](CCC(=O)O)NC(=O)[C@H](CO)NC(=O)[C@@H](NC(=O)[C@@H](N)CO)C(C)C)C(=O)N[C@@H](CCC(N)=O)C(=O)N[C@@H](CC(C)C)C(=O)N[C@@H](CCSC)C(=O)N[C@@H](Cc1c[nH]cn1)C(=O)N[C@@H](CC(N)=O)C(=O)N[C@@H](CC(C)C)C(=O)NCC(=O)N[C@@H](CCCCN)C(=O)N[C@@H](Cc1c[nH]cn1)C(=O)N[C@@H](CC(C)C)C(=O)N[C@@H](CC(N)=O)C(=O)N[C@@H](CO)C(=O)N[C@@H](CCSC)C(=O)N[C@@H](CCC(=O)O)C(=O)N[C@@H](CCCNC(=N)N)C(=O)N[C@H](C(=O)N[C@@H](CCC(=O)O)C(=O)N[C@@H](Cc1c[nH]c2ccccc12)C(=O)N[C@@H](CC(C)C)C(=O)N[C@@H](CCCNC(=N)N)C(=O)N[C@@H](CCCCN)C(=O)N[C@@H](CCCCN)C(=O)N[C@@H](CC(C)C)C(=O)N[C@@H](CCC(N)=O)C(=O)N[C@@H](CC(=O)O)C(=O)N[C@H](C(=O)N[C@@H](Cc1c[nH]cn1)C(=O)N[C@@H](CC(N)=O)C(=O)N[C@@H](Cc1ccccc1)C(=O)O)C(C)C)C(C)C [teriparatide acetate]
- Change in lumbar vertebral density (%), Mean [1, 5]: 3.9%
- Change in lumbar vertebral density (%), Median [1, 5]: 3.7%
- Change in lumbar vertebral density (%), Mean [1, 6]: 6.0%
- Change in lumbar vertebral density (%), Median [1, 6]: 5.7%
- Change in lumbar vertebral density (%), Mean [1, 7]: 6.3%
- Change in lumbar vertebral density (%), Median [1, 7]: 6.6%
- Change in lumbar vertebral density (%), Mean [1, 8]: 5.8%
- Change in lumbar vertebral density (%), Median [1, 8]: 5.4%
- Change in lumbar vertebral density (%), Mean [1, 9]: 3.7%
- Change in lumbar vertebral density (%), Median [1, 9]: 3.5%
- Change in lumbar vertebral density (%), Mean [1, 10]: 4.9%
- Change in lumbar vertebral density (%), Median [1, 10]: 3.8%
- Change in lumbar vertebral density (%), Mean [1, 11]: 6.1%
- Change in lumbar vertebral density (%), Median [1, 11]: 6.3%
- Change in lumbar vertebral density (%), Mean [1, 12]: 5.6%
- Change in lumbar vertebral density (%), Median [1, 12]: 4.9%
- Change in lumbar vertebral density (%), Mean ([1]; Normal (≧80), After 24 W): 4.3%
- Change in lumbar vertebral density (%), Median ([1]; Normal (≧80), After 24 W): 5.1%
- Change in lumbar vertebral density (%), Mean ([1]; Normal (≧80), After 48 W): 5.4%
- Change in lumbar vertebral density (%), Median ([1]; Normal (≧80), After 48 W): 5.6%
- Change in lumbar vertebral density (%), Mean ([1]; Normal (≧80), After 72 W): 8.1%
- Change in lumbar vertebral density (%), Median ([1]; Normal (≧80), After 72 W): 8.0%
- Change in lumbar vertebral density (%), Mean ([1]; Normal (≧80), Final): 7.5%
- Change in lumbar vertebral density (%), Median ([1]; Normal (≧80), Final): 5.6%
- Percentage change in bone density (%), Lumbar spine [1, 13]: 3.11%
- Percentage change in bone density (%), Lumbar spine [1, 14]: 5.47%
- Percentage change in bone density (%), Lumbar spine [1, 15]: 6.47%
- Percentage change in bone density (%), Lumbar spine [1, 16]: 3.50%
- Percentage change in bone density (%), Lumbar spine [1, 17]: 4.40%
- Percentage change in bone density (%), Lumbar spine [1, 18]: 3.78%
- Percentage change in bone density (%), Lumbar spine [1, 19]: 6.16%
- Percentage change in bone density (%), Lumbar spine [1, 20]: 5.85%
- Percentage change in bone density (%), Lumbar spine [1, 21]: 1.96%
- Percentage change in bone density (%), Lumbar spine [1, 22]: 3.45%
- Percentage change in bone density (%), Lumbar spine [1, 23]: 4.93%
- Percentage change in bone density (%), Lumbar spine [1, 24]: 3.95%
- Percentage change in bone density (%), Lumbar spine [1, 25]: 3.59%
- Percentage change in bone density (%), Lumbar spine [1, 26]: 5.36%
- Percentage change in bone density (%), Lumbar spine [1, 27]: 2.70%
- Percentage change in bone density (%), Lumbar spine [1, 28]: 3.04%
- Percentage change in bone density (%), Lumbar spine [1, 29]: 4.32%
- Percentage change in bone density (%), Lumbar spine [1, 30]: 1.77%
- Percentage change in bone density (%), Lumbar spine [1, 31]: 4.96%
- Percentage change in bone density (%), Lumbar spine [1, 32]: 4.59%
- Changes in bone density (%), Lumbar spine ([1]; 24 W): 3.50%
- Changes in bone density (%), Lumbar spine ([1]; 48 W): 5.97%
- Changes in bone density (%), Lumbar spine ([1]; 72 W): 6.82%
- Fractures of sites other than the vertebrae: No. with fractures (persons) ([2]; high-risk patients, 5 units once a week): 6 persons
- Fractures of sites other than the vertebrae: No. with fractures (persons) ([2]; high-risk patients, 100 units once a week): 1 persons
- Fractures of sites other than the vertebrae: No. with fractures (persons) ([2]; low-risk patients, 5 units once a week): 1 persons
- Fractures of sites other than the vertebrae: No. with fractures (persons) ([2]; low-risk patients, 100 units once a week): 0 persons
- No. with fractures (worsening fractures) [3]: 1
- Incidence of worsening fractures (%) ([3]; After 24 W): 0.4%
- Incidence of worsening fractures (%) ([3]; After 48 W): 0.4%
- Difference between test drug group and control group after 72 W (%), worsening fractures ([3]; after 72 W): 1.8%
- Incidence of worsening fractures (%) ([3]; after 72 W): 0.4%
- Percentage change in bone density (%), Neck of femur [4, 13]: 1.64%
- Percentage change in bone density (%), Proximal femur [4, 13]: 2.77%
- Percentage change in bone density (%), Neck of femur [4, 14]: 0.85%
- Percentage change in bone density (%), Proximal femur [4, 14]: 2.31%
- Percentage change in bone density (%), Neck of femur [4, 15]: 2.19%
- Percentage change in bone density (%), Proximal femur [4, 15]: 2.31%
- Percentage change in bone density (%), Neck of femur [4, 16]: −0.60%
- Percentage change in bone density (%), Proximal femur [4, 16]: −1.40%
- Percentage change in bone density (%), Neck of femur [4, 17]: −4.03%
- Percentage change in bone density (%), Neck of femur [4, 33]: −3.53%
- Percentage change in bone density (%), Proximal femur [4, 33]: −0.04%
- Percentage change in bone density (%), Neck of femur [4, 18]: 1.44%
- Percentage change in bone density (%), Proximal femur [4, 18]: 1.76%
- Percentage change in bone density (%), Proximal femur [4, 19]: 2.28%
- Percentage change in bone density (%), Neck of femur [4, 20]: 4.17%
- Percentage change in bone density (%), Proximal femur [4, 20]: 3.69%
- Percentage change in bone density (%), Neck of femur [4, 21]: 0.30%
- Percentage change in bone density (%), Proximal femur [4, 21]: 1.78%
- Percentage change in bone density (%), Neck of femur [4, 22]: −4.35%
- Percentage change in bone density (%), Proximal femur [4, 22]: −1.68%
- Percentage change in bone density (%), Neck of femur [4, 23]: −2.53%
- Percentage change in bone density (%), Proximal femur [4, 23]: −3.20%
- Percentage change in bone density (%), Neck of femur [4, 24]: 1.62%
- Percentage change in bone density (%), Proximal femur [4, 24]: 3.86%
- Percentage change in bone density (%), Neck of femur [4, 25]: 0.72%
- Percentage change in bone density (%), Proximal femur [4, 25]: 3.44%
- Percentage change in bone density (%), Neck of femur [4, 26]: 3.15%
- Percentage change in bone density (%), Proximal femur [4, 26]: 4.41%
- Percentage change in bone density (%), Neck of femur [4, 27]: 0.72%
- Percentage change in bone density (%), Proximal femur [4, 27]: 0.60%
- Percentage change in bone density (%), Neck of femur [4, 28]: −3.18%
- Percentage change in bone density (%), Proximal femur [4, 28]: −0.56%
- Percentage change in bone density (%), Neck of femur [4, 29]: −0.78%
- Percentage change in bone density (%), Proximal femur [4, 29]: −1.40%
- Percentage change in bone density (%), Neck of femur [4, 30]: 0.21%
- Percentage change in bone density (%), Proximal femur [4, 30]: 2.44%
- Percentage change in bone density (%), Neck of femur [4, 31]: 1.03%
- Percentage change in bone density (%), Neck of femur [4, 32]: −0.51%
- Percentage change in bone density (%), Proximal femur [4, 32]: 3.03%
- Changes in bone density (%), Neck of femur ([4]; 24 W): 2.53%
- Changes in bone density (%), Proximal femur ([4]; 24 W): 2.46%
- Changes in bone density (%), Neck of femur ([4]; 48 W): 2.79%
- Changes in bone density (%), Proximal femur ([4]; 48 W): 3.39%
- Changes in bone density (%), Neck of femur ([4]; 72 W): 2.44%
- Changes in bone density (%), Proximal femur ([4]; 72 W): 3.06%
